Measured data: PubChem BioAssay AID504791 (Drosophila RNAi Screening Center, 2011)

Aim: 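Genes whose knock-down strengthens or weakens small-RNA reporter silencing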 (primary screen)
Cell system: Drosophila S2-derived reporter cells
Reagents: long dsRNA against Drosophila genes, about 150-250 ng dsRNA per well (siRNA assay); about 80-120 ng (miRNA assay)
Time to read-out: about 5 days (siRNA assay); about 4 days (miRNA assay)
Conditions: copper sulfate induction of reporters: 25 µM (siRNA assay); 200 mM stated (miRNA assay), 1-2 days before reading
Read-out: 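Per-well ratio of Renilla over firefly light, expressed relative to that plate's average ratio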
Rule for the call: 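a well was a first-pass pick when its plate-scaled ratio rose above 1.5 (siRNA assay) or 1.6 (miRNA assay), or dropped below 0.6; a gene counted only if two separate dsRNAs agreed on retest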
The screen tested about 23,000 reagents; shown is a random part of those that have a named target and a result. Of all reagents, 199 (0.86%) are marked active. 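Plate-scaled ratios behind the calls are not deposited; printed light signals are raw; many rows marked increased or decreased are still called inactive.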 Unmarked entries are inactive. Names joined by + are all predicted targets of the reagent. Not stated in the record: the direction of the score.

CG17707 [DRSC20650]: stable assay Renilla, run 1 (luminescence) = 5822; stable assay firefly, run 1 (luminescence) = 3.64e5
betaNACtes4 [DRSC19801]: stable assay Renilla, run 1 (luminescence) = 4603; stable assay firefly, run 1 (luminescence) = 3.59e5
Mcm2 [DRSC16734]: stable assay Renilla, run 1 (luminescence) = 5744; stable assay firefly, run 1 (luminescence) = 4.25e5
Obp56c [DRSC06552]: stable assay Renilla, run 1 (luminescence) = 4452; stable assay firefly, run 1 (luminescence) = 3.21e5
Obp56c [DRSC22325]: stable assay Renilla, run 1 (luminescence) = 8789; stable assay firefly, run 1 (luminescence) = 6.31e5
Sec3 [DRSC10384]: stable assay Renilla, run 1 (luminescence) = 7482; stable assay firefly, run 1 (luminescence) = 2.57e5
CG1698 [DRSC06640]: stable assay Renilla, run 1 (luminescence) = 8206; stable assay firefly, run 1 (luminescence) = 3.41e5
Gbeta13F [DRSC20247]: stable assay Renilla, run 1 (luminescence) = 8236; stable assay firefly, run 1 (luminescence) = 3.63e5
CG12491 + CG34105 [DRSC04008]: stable assay Renilla, run 1 (luminescence) = 6444; stable assay firefly, run 1 (luminescence) = 4.27e5
CG12491 + CG34105 [DRSC04124]: stable assay Renilla, run 1 (luminescence) = 6000; stable assay firefly, run 1 (luminescence) = 3.35e5
CG15144 [DRSC02445]: stable assay Renilla, run 1 (luminescence) = 7031; stable assay firefly, run 1 (luminescence) = 3.48e5
witty [DRSC02378]: stable assay Renilla, run 1 (luminescence) = 6279; stable assay firefly, run 1 (luminescence) = 3.65e5
witty [DRSC21650]: stable assay Renilla, run 1 (luminescence) = 9097; stable assay firefly, run 1 (luminescence) = 5.47e5
CG34032 (retired record) [DRSC09225]: stable assay Renilla, run 1 (luminescence) = 6168; stable assay firefly, run 1 (luminescence) = 4.88e5
BCL7-like [DRSC17729]: stable assay Renilla, run 1 (luminescence) = 7543; stable assay firefly, run 1 (luminescence) = 4.52e5
CG6769 [DRSC20006]: stable assay Renilla, run 1 (luminescence) = 7766; stable assay firefly, run 1 (luminescence) = 4.90e5
Ets96B [DRSC16127]: miRNA reporter change = reporter ratio lowered past the hit cutoff (active); stable assay Renilla, run 1 (luminescence) = 4964; stable assay firefly, run 1 (luminescence) = 2.80e5
gcm [DRSC03536]: stable assay Renilla, run 1 (luminescence) = 6947; stable assay firefly, run 1 (luminescence) = 3.58e5
Tsp42Ef [DRSC06191]: stable assay Renilla, run 1 (luminescence) = 5764; stable assay firefly, run 1 (luminescence) = 4.77e5

Already shown: entries from further up.
CG12491 + CG34105 [DRSC04008]: stable assay Renilla, run 1 (luminescence) = 6444; stable assay firefly, run 1 (luminescence) = 4.27e5
CG12491 + CG34105 [DRSC04124]: stable assay Renilla, run 1 (luminescence) = 6000; stable assay firefly, run 1 (luminescence) = 3.35e5
CG15144 [DRSC02445]: stable assay Renilla, run 1 (luminescence) = 7031; stable assay firefly, run 1 (luminescence) = 3.48e5
